No constants are given. Whether binding was seen depends on the method and setting. Some binding calls cover weakened binding; strength is not graded here.
Experiments:
Assay in all cases: ELISA; ECM protein coated on microtiter wells (10 µg/mL in DPBS, 1 h), blocked with 5% BSA in DPBS with 0.05% Tween 20; β2m variants added in dilution series (0, 2.5, 5, 10 µg/mL), 1 h; detected with mouse anti-human β2m and goat anti-mouse-HRP, absorbance at 450 nm; both purified
[1] = target: T1, osteoadherin (UniProt Q99983)
T1 sequence: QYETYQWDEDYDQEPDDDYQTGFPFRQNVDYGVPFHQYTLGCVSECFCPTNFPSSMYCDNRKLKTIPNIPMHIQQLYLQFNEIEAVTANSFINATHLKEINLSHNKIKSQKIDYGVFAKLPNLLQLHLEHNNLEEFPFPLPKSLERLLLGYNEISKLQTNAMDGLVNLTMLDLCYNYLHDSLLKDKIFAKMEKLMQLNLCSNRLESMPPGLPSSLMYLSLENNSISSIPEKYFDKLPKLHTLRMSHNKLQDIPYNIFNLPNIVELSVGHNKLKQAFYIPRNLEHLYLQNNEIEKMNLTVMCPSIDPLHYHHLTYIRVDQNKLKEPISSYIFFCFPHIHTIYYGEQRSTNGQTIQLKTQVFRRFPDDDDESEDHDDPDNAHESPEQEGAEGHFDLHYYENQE

Amino acid sequences for entries named in this document (tags omitted). A change or cut given only in a name is not applied to a line headed by its entry. Chains listed by the source or under a name are the forms on record and can include a tag or linker.
UniProt P02452: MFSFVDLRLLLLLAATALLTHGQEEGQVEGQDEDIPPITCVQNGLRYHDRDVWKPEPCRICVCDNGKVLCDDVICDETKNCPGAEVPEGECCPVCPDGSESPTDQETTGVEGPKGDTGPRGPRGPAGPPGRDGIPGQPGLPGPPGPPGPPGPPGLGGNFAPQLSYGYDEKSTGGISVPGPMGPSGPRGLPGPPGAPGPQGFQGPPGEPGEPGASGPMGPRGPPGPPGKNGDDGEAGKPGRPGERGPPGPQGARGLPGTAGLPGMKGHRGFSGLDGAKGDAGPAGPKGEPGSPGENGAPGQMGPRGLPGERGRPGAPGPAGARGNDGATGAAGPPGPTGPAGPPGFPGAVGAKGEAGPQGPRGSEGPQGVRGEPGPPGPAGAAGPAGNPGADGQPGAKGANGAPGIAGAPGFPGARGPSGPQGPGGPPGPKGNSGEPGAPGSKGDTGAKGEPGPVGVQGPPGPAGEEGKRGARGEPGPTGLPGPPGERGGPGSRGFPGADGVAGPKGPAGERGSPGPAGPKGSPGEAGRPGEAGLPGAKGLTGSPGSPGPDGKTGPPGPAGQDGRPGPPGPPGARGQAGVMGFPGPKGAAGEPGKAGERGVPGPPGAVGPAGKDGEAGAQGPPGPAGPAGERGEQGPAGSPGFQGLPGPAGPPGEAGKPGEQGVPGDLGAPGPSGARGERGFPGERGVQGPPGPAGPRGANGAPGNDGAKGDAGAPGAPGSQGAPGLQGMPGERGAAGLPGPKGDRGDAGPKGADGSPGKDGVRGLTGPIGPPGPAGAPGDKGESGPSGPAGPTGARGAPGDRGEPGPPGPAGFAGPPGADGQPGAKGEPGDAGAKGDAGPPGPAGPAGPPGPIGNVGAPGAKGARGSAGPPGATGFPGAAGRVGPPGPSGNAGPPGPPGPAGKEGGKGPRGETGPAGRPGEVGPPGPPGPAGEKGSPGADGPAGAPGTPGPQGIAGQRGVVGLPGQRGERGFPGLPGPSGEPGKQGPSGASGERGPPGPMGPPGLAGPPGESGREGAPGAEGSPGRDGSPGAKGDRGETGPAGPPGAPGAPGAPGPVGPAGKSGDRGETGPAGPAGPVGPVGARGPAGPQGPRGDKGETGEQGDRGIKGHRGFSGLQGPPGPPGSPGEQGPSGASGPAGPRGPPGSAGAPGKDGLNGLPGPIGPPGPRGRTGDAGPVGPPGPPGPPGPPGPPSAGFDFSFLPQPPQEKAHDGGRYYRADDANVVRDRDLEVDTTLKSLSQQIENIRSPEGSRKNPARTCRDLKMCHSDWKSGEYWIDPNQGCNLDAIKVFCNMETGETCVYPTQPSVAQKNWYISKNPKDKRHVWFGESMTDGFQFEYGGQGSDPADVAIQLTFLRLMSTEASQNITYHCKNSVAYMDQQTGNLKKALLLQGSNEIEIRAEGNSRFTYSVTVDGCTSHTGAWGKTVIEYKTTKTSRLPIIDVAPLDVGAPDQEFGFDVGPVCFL
UniProt P08123: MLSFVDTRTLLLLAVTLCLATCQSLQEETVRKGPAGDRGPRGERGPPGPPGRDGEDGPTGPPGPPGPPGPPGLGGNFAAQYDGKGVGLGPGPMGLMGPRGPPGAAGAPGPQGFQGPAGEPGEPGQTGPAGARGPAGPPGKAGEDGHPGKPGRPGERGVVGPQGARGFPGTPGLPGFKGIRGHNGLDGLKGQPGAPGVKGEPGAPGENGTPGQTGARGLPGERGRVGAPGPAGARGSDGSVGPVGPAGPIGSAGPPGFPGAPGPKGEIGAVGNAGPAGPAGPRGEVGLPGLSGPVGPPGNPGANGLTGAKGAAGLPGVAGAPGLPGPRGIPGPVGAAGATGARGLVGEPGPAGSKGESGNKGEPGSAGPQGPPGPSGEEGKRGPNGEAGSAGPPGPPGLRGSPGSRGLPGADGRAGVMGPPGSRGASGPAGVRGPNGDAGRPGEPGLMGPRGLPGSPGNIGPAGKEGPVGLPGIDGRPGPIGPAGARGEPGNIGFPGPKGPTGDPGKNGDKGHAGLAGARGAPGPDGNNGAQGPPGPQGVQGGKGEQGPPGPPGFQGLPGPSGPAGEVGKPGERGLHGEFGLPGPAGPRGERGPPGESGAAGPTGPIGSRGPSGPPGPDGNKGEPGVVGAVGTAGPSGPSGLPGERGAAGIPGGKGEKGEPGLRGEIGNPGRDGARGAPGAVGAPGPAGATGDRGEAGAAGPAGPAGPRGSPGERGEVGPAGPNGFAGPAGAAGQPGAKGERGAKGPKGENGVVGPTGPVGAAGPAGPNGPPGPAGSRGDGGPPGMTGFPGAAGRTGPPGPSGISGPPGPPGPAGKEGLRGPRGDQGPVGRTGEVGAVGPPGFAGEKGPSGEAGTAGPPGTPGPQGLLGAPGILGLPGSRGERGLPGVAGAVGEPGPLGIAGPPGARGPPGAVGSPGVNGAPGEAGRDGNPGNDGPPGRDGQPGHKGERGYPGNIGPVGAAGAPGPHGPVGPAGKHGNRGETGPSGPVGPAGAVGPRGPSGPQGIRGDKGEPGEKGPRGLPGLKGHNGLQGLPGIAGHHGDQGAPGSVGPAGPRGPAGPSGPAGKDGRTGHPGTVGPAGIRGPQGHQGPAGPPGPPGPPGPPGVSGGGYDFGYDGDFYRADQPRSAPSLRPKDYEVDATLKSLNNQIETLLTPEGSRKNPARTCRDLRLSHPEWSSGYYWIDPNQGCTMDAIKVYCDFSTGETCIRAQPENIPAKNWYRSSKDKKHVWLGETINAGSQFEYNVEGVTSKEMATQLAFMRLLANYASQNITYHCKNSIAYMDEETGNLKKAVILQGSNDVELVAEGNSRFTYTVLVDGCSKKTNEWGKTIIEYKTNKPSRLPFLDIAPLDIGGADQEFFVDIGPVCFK
UniProt P61769: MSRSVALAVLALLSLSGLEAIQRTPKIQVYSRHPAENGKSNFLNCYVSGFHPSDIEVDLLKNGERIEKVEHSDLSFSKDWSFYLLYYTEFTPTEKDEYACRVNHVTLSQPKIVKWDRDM
D38N β2-microglobulin mutant (P61769, form named): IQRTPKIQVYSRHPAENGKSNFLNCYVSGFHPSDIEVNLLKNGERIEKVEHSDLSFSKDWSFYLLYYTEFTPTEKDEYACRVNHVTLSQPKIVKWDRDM
D76N β2-microglobulin variant (P61769, form named): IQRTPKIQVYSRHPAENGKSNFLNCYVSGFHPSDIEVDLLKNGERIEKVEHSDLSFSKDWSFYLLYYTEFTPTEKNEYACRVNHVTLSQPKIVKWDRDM
K41S β2-microglobulin mutant (P61769, form named): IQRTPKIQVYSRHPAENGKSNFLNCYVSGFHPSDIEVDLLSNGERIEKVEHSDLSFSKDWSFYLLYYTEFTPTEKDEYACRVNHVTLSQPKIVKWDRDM

[2] = target: T2, fibromodulin (UniProt Q06828)
T2 sequence: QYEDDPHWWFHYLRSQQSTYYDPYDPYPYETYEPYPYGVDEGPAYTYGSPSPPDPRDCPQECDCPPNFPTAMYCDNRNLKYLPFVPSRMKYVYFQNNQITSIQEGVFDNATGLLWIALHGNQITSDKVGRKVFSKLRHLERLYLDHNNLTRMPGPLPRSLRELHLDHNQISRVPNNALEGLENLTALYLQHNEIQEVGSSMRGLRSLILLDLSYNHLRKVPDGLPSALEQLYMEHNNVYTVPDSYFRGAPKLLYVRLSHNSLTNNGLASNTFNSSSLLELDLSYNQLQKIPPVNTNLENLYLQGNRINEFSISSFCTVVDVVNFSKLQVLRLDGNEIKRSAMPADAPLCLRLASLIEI

[3] = target: collagen I from human placenta (human) (UniProt P02452+P08123)

Q: “D38N β2-microglobulin mutant (from UniProt P61769 21-119)” was tested. Which binding [1] did it give?
A: binds

Q: What about the binding [2] of the same substance?
A: binds

Q: And the binding [3]?
A: binds

Q: “D76N β2-microglobulin variant (from UniProt P61769 21-119)” was tested. Which binding [1] did it give?
A: binds

Q: And the binding [2]?
A: binds

Q: What about the binding [3] of the same substance?
A: binds

Q: “K41S β2-microglobulin mutant (from UniProt P61769 21-119)” was tested. Which binding [1] did it give?
A: binds

Q: What about the binding [2] of the same substance?
A: binds

Q: And the binding [3]?
A: binds

Q: What does the source list for “wild-type β2-microglobulin (from UniProt P61769 21-119)”?
A: binding [1]: binds; binding [2]: binds; binding [3]: binds weakly

— paper PMC8614874
